Experimental data reported in PubChem BioAssay AID1487 (National Center for Advancing Translational Sciences (NCATS), 2009).
Some of the results follow. The main result of the screen is listed elsewhere. These columns were measured beside it and carry no call. Most of these compounds were active or inconclusive in the main read-out, so they are no random draw. The note in brackets gives the kind of curve behind each potency; many fits are weak.

Assay: qHTS Assay for Modulators of Lamin A Splicing
Conditions: HeLa LMNA splicing GFP/RFP minigene ratio, 48 h
Procedure, shortened: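 S3 HeLa stable clones carrying a lamin A-EGFP splicing minigene plus DsRed2 were seeded at 600 cells/well in Opti-MEM with 2% FBS, pin-dosed and incubated 48 h at 37°C. Acumen cytometry (488 nm) gave the GFP/RFP total-intensity ratio.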

[1] = measured here: GFP splicing reporter channel
[2] = measured here: RFP viability control channel

SMILES	AC50 [1]	AC50 [2]
Cc1cccc(Cn2cccc2CNS(=O)(=O)c2ccc(Br)cc2)c1	35.5 µM [falling, single point]	35.5 µM [falling, single point]
COc1ccc(NC(=O)c2cccs2)cc1O	–	11.2 µM [rising, single point]
CCOC(=O)C1=C(C)NC(C)=C(C(=O)OCC)C1C(=O)OCC(=O)N(C)C1CCS(=O)(=O)C1 (configuration not stated)	0.631 µM [rising, partial curve, poor fit]	0.708 µM [rising, partial curve, poor fit]
CC1(C)CC(=O)C2=C(C1)NC(SCC(=O)Nc1ccccc1)=C(C#N)C2c1ccco1 (configuration not stated)	–	11.2 µM [rising, single point]
NS(=O)(=O)c1ccc(CCNC(=O)CN2CCN(c3ccccc3F)CC2)cc1	0.1 µM [falling, full curve, poor fit]	–
Cc1ccc2nc(SCc3nc4ccccc4c(=O)[nH]3)[nH]c2c1	0.0251 µM [falling, full curve, poor fit]	–
Cc1onc(-c2c(F)cccc2Cl)c1C(=O)OCn1nnc2ccccc2c1=O	–	35.5 µM [rising, single point]
O=C(COC(=O)c1ccncc1)c1ccc(Br)cc1	–	0.00316 µM [falling, full curve, poor fit]
COc1cccc(C(=O)N2CCC(O)(c3cccnc3)CC2)c1	7.08 µM [rising, full curve, poor fit]	0.1 µM [rising, full curve, poor fit]
O=c1c(-c2ccccc2)nc2cnc(N3CCOCC3)nc2n1Cc1ccc(F)cc1	0.00398 µM [falling, full curve, poor fit]	0.00355 µM [falling, full curve, poor fit]
CC1(C)[C@@H](OC(=O)CCC(=O)O)CC[C@@]2(C)[C@H]1CC[C@@]1(C)[C@H]2C(=O)C=C2[C@H]3C[C@](C)(C(=O)O)CC[C@]3(C)CC[C@@]21C	3.16 µM [falling, single point]	3.16 µM [falling, single point]
CCOC(=O)C(C)Sc1ccc2nnc(CCNS(=O)(=O)c3ccccc3)n2n1 (configuration not stated)	–	0.02 µM [falling, full curve, poor fit]
Fc1ccc(CSc2nc3ccccc3[nH]2)c2ccccc12	–	14.1 µM [rising, single point]
O=c1c2ccccc2nnn1CSc1nnc(C2COc3ccccc3O2)n1-c1ccccc1 (configuration not stated)	–	7.08 µM [rising, partial curve]
O[C@@H](c1cc(C(F)(F)F)nc2c(C(F)(F)F)cccc12)[C@H]1CCCCN1	35.5 µM [rising, single point]	35.5 µM [rising, single point]
Cc1cccc(C(=O)N2CCc3cc(-c4nc(NC(=O)Cn5nnc6ccccc6c5=O)sc4C)ccc32)c1	–	8.91 µM [rising, partial curve]
COCCCNC(=S)N1CCN(c2ccc([N+](=O)[O-])cc2)CC1	–	2.51 µM [rising, partial curve]
CC1CCc2sc(C(=O)Nc3nnc(SCc4ccc(F)cc4)s3)cc2C1 (configuration not stated)	–	5.62 µM [rising, single point]
Cc1ccc(NNC(=O)C(O)(c2cccc(C(F)(F)F)c2)c2cccc(C(F)(F)F)c2)cc1	11.2 µM [falling, partial curve]	–
O=C(O)C1C2CCC(O2)C1C(=O)NCCC1=CCCCC1 (configuration not stated)	12.6 µM [rising, partial curve]	14.1 µM [rising, single point]
NS(=O)(=O)c1cc2c(cc1C(F)(F)F)NC(Cc1ccccc1)NS2(=O)=O (configuration not stated)	–	0.501 µM [falling, full curve, poor fit]
CCN(CC)CCCN(Cc1cc2cc3c(cc2[nH]c1=O)OCO3)C(=S)NCc1ccco1	0.0562 µM [rising, full curve, poor fit]	–
CCOC(=O)Cn1c2c(c(=N)c3ccccc31)CCC2	11.2 µM [rising, partial curve, poor fit]	10 µM [rising, partial curve, poor fit]
Cc1ccc(OCCn2c(=S)[nH]c3c(N)ncnc32)cc1	5.62 µM [rising, single point]	–
Nc1ccccc1Nc1cc(-c2ccccc2)[nH]n1	–	6.31 µM [rising, single point]
COCCNC(=O)C(c1ccc(O)cc1)N(C(=O)CCC(=O)Nc1nccs1)c1cccc(C)c1 (configuration not stated)	3.98 µM [rising, single point]	35.5 µM [falling, single point]
CC(=O)Nc1ccc2c(COC(=O)CC3Sc4ccccc4NC3=O)cc(=O)oc2c1 (configuration not stated)	0.00562 µM [falling, full curve, poor fit]	–

Reformatted: entries from further up.

| SMILES | AC50 [1] | AC50 [2] |
| --- | --- | --- |
| O=c1c2ccccc2nnn1CSc1nnc(C2COc3ccccc3O2)n1-c1ccccc1 (configuration not stated) | – | 7.08 µM [rising, partial curve] |
| Cc1ccc(NNC(=O)C(O)(c2cccc(C(F)(F)F)c2)c2cccc(C(F)(F)F)c2)cc1 | 11.2 µM [falling, partial curve] | – |

The results go on:

SMILES	AC50 [1]	AC50 [2]
CCC(C)C(=O)OC1CC(O)C=C2C=CC(C)C(CCC(O)CC(O)CC(=O)O)C21 (configuration not stated)	0.01 µM [falling, full curve, poor fit]	–
COc1ccccc1CNS(=O)(=O)c1cnc(N)nc1	0.0316 µM [falling, full curve]	0.0501 µM [falling, full curve, poor fit]
CC(C)[C@H](NS(=O)(=O)c1ccc2c(c1)OCCO2)C(=O)OCC(=O)Nc1cc(Cl)ccc1Cl	–	35.5 µM [rising, single point]
C#CCNc1nc(C(C)C)nc2c1nnn2Cc1ccccc1F	5.62 µM [falling, single point]	3.55 µM [falling, single point]
O=C(COc1ccc(Cl)cc1Cl)N(c1ccccn1)C1CCCCC1	–	35.5 µM [rising, single point]
O=S(=O)(Cc1cc(N2CCOCC2)nc(-c2ccccn2)n1)c1ccccc1	–	31.6 µM [rising, single point]
Cc1nc2ccn(Cc3ccco3)c(=O)c2cc1C(=O)NCc1ccccc1	0.501 µM [rising, full curve, poor fit]	0.708 µM [rising, full curve]
CCOC(=O)C1=C(C)N2C(=C(C#N)[C@@H]1c1ccc(C(=O)OC)cc1)SC[C@@]2(O)C(C)(C)C	–	35.5 µM [rising, single point]
O=C(CSc1ncnc2c1cnn2CCc1ccccc1)Nc1cccc(C(F)(F)F)c1	35.5 µM [rising, single point]	31.6 µM [rising, single point]
CCc1ccc(NC(=O)COC(=O)C2(c3ccc(Cl)cc3)CCCC2)cc1	–	17.8 µM [rising, single point]
NS(=O)(=O)c1ccc(NC(=S)N2CCN(c3cccc(Cl)c3)CC2)cc1	15.8 µM [rising, single point]	35.5 µM [rising, single point]
COc1cc(CNC(=O)c2cccc(COc3ccc(Cl)cc3)c2)cc(OC)c1	–	22.4 µM [rising, single point]
COCCn1c(=O)c(-c2ccccc2)nc2cnc(Oc3ccc(OC)cc3)nc21	14.1 µM [falling, partial curve]	17.8 µM [falling, partial curve, poor fit]
C=CCn1c(SCC(=O)Nc2ncc(Cc3ccc(Br)cc3)s2)nnc1-c1ccncc1	31.6 µM [falling, single point]	35.5 µM [falling, single point]
CCOC(=O)Nc1ccc(NS(=O)(=O)c2ccc(C)cc2)cc1	–	0.501 µM [rising, full curve, poor fit]
Cn1nnc(C(O)CN2CCOCC2)n1 (configuration not stated)	1.78 µM [rising, partial curve, poor fit]	–
O=c1oc2ccccc2cc1-c1csc(NN=C2CCCC2)n1	–	22.4 µM [rising, single point]
Cc1ccc(NC(=O)c2sccc2C)cc1S(=O)(=O)N(C)C	–	5.01 µM [rising, partial curve, poor fit]
CC(=O)Nc1ccc(S(=O)(=O)NCC2CCC(C(=O)NCCN(CC(C)C)CC(C)C)CC2)cc1 (configuration not stated)	0.0398 µM [rising, full curve]	0.0316 µM [rising, full curve, poor fit]
CCOC(=O)c1cc(C)n(-c2ccc(OC)c(OC)c2)c1C	–	0.501 µM [rising, partial curve, poor fit]
O=C(Nc1ccc(C#Cc2ccccc2)cc1)C1CC1	–	11.2 µM [rising, partial curve]
COc1ccc([C@H]2[C@H](C(=O)OC(C)(C)C)N3N=Cc4ccccc4C3C23C(=O)c2ccccc2C3=O)cc1OC (some centres not stated)	8.91 µM [rising, partial curve, poor fit]	5.01 µM [rising, partial curve, poor fit]
O=C(Nn1cnc2ccccc2c1=O)c1ccc([N+](=O)[O-])cc1Cl	7.08 µM [falling, full curve, poor fit]	–
[NH-]c1ncnc2c1N=C[N+]2=CC=CCO	–	5.62 µM [rising, single point]
Cc1ccc(S(=O)(=O)NC2CCCCC2)c(C)c1NS(C)(=O)=O	–	0.0891 µM [rising, full curve, poor fit]
COc1ccc(-c2nc3cnc(Oc4cccc(Cl)c4)nc3n(C3CC3)c2=O)cc1	–	12.6 µM [falling, single point]
COc1ccccc1NS(=O)(=O)c1cccc(NC(=O)c2ccc3ccccc3n2)c1	–	22.4 µM [rising, partial curve, poor fit]
